Results are given in words; binding and its absence hold for the method and conditions named. Some results given as binding are weak or reduced against the parent protein; the word gives no strength.
Target: T1, human CD131 (human, UniProt P32927 17-897)
T1 sequence: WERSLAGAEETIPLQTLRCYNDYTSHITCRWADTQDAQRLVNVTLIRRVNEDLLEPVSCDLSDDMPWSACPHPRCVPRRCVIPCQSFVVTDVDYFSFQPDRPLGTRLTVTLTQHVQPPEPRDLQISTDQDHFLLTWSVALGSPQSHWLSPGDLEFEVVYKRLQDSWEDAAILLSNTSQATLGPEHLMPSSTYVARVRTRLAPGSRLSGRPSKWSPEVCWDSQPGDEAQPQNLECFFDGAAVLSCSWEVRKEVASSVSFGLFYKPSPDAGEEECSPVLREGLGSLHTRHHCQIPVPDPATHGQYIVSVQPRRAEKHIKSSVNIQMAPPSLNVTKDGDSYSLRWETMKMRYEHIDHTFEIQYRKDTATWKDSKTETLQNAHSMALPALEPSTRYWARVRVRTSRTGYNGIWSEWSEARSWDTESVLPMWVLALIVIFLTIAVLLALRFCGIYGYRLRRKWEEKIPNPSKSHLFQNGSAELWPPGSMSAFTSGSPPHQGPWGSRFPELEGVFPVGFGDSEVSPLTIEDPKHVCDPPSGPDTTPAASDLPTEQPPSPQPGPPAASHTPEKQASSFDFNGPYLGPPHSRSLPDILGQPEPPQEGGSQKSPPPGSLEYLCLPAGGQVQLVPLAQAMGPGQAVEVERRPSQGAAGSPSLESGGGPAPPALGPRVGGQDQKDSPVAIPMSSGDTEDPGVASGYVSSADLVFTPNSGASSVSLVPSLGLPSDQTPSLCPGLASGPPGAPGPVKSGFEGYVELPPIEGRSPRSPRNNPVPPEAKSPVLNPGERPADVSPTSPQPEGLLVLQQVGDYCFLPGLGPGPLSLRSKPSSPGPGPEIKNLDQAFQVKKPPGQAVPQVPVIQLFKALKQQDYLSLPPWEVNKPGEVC
Test: competition binding on TF-1 cells: cells pre-incubated with the cytokine, then equilibrated with 85 pM radio-iodinated 9A2-VR24.29; cell-bound c.p.m.
Procedure: Each point is the mean of duplicate determinations of cell-bound radioiodinated cytokine and error bars represent the standard deviation.
Cytokines and antibodies were radio-iodinated using Pierce Pre-Coated Iodination tubes (Thermo Scientific) according to the manufacturer's instructions. MAb binding to cells expressing hβc was determined by incubating 1-2×10⁶ cells with radio-iodinated mAb at a range of concentrations at 23° C. for 1-2 hours with gentle mixing. Cell suspensions were then centrifuged through fetal calf serum (FCS) and radioactivity associated with the cells pellets was assessed by counting in a Wizard² 2470 Automatic Gamma Counter (Perkin Elmer, Rowville, VIC, Australia). Non-specific binding was assessed for each radio-iodinated mAb in the presence of at least a 500-fold excess of unlabeled mAb. […] Competition binding assays were performed essentially as previously described (41). Briefly 1-2×10⁶ cells were incubated with mAb or cytokine competitor at a range of concentrations at 4° C. for 45 minutes with gentle mixing. Radio-iodinated cytokine or mAb was then added and the mixture incubated at 23° C. for a further 1-2 hours with gentle mixing. Cell suspensions were then centrifuged through FCS and radioactivity associated with the cells pellets assessed by counting.

Chains of the proteins cited; added tags and fusions are not shown. Residues count along the entry.
UniProt P05113, residues 20-134: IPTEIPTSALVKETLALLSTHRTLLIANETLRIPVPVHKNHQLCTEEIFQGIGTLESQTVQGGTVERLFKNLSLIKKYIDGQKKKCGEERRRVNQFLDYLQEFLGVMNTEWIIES

“recombinant human IL-5 (from UniProt P05113 20-134) (ligand)” was tested, and the binding was “binds”.
